The source of these data is paper PMC7225089, “A long lost key opens an ancient lock: Drosophila Myb causes a synthetic multivulval phenotype in nematodes” (Biology Open, 2020).

Results are given in words; binding and its absence hold for the method and conditions named.

This assay concerns the target Drosophila LIN9-LIN52 heterodimeric Myb-binding domain complex (D. melanogaster). In words: condition: Myb fragment ~500 μM in the syringe, LIN9-LIN52 ~25–50 μM; ITC; Myb fragment (~500 μM) in the syringe injected into LIN9-LIN52 heterodimer (~25–50 μM) at 25°C; 20 mM Tris, 150 mM NaCl, 1 mM beta mercaptoethanol, pH 8.0; MicroCal VP-ITC; triplicate; both purified.

As to VIDPKWARVACGKSRAAMFMEEQAYACLKNL (domain or fragment, UniProt P04197 602-632), the binding result was “no binding”.
